In article doi:10.1101/775536 one finds binding data, which are given here for two molecules.

No constants are given. Whether binding was seen depends on the method and setting. Binding seen in cells or lysates may run through a third protein. Some results given as binding are weak or reduced against the parent protein; the word gives no strength. For some assays here: Where a sequence is shown, tags or fusion partners need not be part of it.

Experiment [1] addresses HlpA-SmBit (S. pneumoniae D39V). Put plainly: split reporter.
Experiment [2] deals with CcrZ-LgBit (S. pneumoniae D39V). Put plainly: split reporter.

Consider “HlpA-SmBit (from UniProt A0ACD7PRL6 1-91)”, for which, in experiment [1], the binding result is reported as “binds”.

B1: YabA (split-luciferase fusion) (protein, UniProt B1IBA4 1-105)
chain: MDKKELFDALDDFSQQLLVTLADVEAIKKNLKSLVEENTALRLENSKLRERLGEVEADAPVKAKHVRESVRRIYRDGFHVCNDFYGQRREQDEECMFCDELLYRE
Consider B1, for which the binding entry in experiment [2] was “no binding”.
